In PubChem BioAssay AID504467 (National Center for Advancing Translational Sciences (NCATS), 2011):
Hit rate of the full screen: of about 330,000 compounds, about 7,700 (2.3%) were called active. The inconclusive results got no clear call from the source; some entries with a clear call stand among them for comparison. Calls come from the whole dose curve; as a rule, active = well fitted inhibition curve with a large enough effect; inconclusive = small, poorly fitted or top-dose-only effect, or effect the other way; inactive = flat fitted curve, though single readings scatter. A potency beside an inconclusive call is a rough fit, not a confirmed value.

Assay: qHTS screen for small molecules that inhibit ELG1-dependent DNA repair in human embryonic kidney (HEK293T) cells expressing luciferase-tagged ELG1; note: nearly all actives have a fitted effect of over 55% in size
Details: HEK293T ELG1-luciferase reporter, luminescence, 16 h, DNA damage induced by 5-fluorouridine; activity change, negative = inhibition: at 46.1 µM (top of the series)
How it was run: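 HEK293T cells expressing luciferase-tagged ELG1 (2,000/well) received 5-Fluorouridine plus compound or DMSO for 16 hr at 37 °C. Luciferase was read by ONE-Glo luminescence after 30 min at room temperature.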
% is set by controls: 0 for no effect and ±100 for the full control effect; potency is the fitted concentration of half-maximal effect.

SMILES | Potency | activity change, negative = inhibition
CC(=O)N1CCN(C(=O)c2ccc3oc(CCCc4ccccc4)nc3c2)CC1 | inactive | –
CCCNC(=O)Nc1ccc2c(c1)nc(C)n2C | inconclusive: 29.1 µM [activator, single point] | –
COc1ccc(S(=O)(=O)Nc2ccc(C)c(S(=O)(=O)N3CCOCC3)c2)cc1[N+](=O)[O-] | inactive | –
O=C(c1ccccc1F)N(NC(=O)C(O)(c1ccccc1)c1ccccc1)c1ccccc1 | inactive | –
COC(=O)c1ccc(N=NN2CCOCC2)cc1 | inconclusive: 16.4 µM [activator, partial curve] | –
O=S(=O)(c1ccc(OCC(O)CN2CCCC2)cc1)N1CCOCC1 (configuration not stated) | inconclusive: 29.1 µM [inhibitor, single point] | –
COc1ccc(OC)c(NC(=O)c2cc3ccccc3o2)c1 | inactive | –
CC(C)=CCCC(C)CN1CCC(N2CCC(C(=O)N3CCOCC3)CC2)CC1 (configuration not stated) | inactive | –
COc1ccc2[nH]c(C(=O)N3CCC(CO)(Cc4cccc(C(F)(F)F)c4)CC3)c(C)c2c1 | inactive | –
CN(C)S(=O)(=O)c1cccc(NC(=O)c2ccc(NS(=O)(=O)c3cccs3)cc2)c1 | inactive | –
O=C(CN1CCC(C(=O)c2ccc(Cl)cc2)CC1)NC1CCCC1 | inconclusive: 6.51 µM [inhibitor, single point] | –
O=S1(=O)CC/C(=N\O)c2ccccc21 | inactive | –
CCOc1ccc(CNc2ccc(N3CCCC3)cc2)cc1 | inconclusive: 29.1 µM [activator, single point] | –
O=C(Cc1cccs1)NCCn1ccc2ccccc21 | inconclusive: 16.4 µM [activator, single point] | –
COc1ccc(C(=O)NCC23C=CC(O2)C2C(=O)N(Cc4ccccc4)C(=O)C23)cc1 (configuration not stated) | active: 16.4 µM | –
Cc1cccc(N(CC(=O)NCc2ccc3c(c2)OCO3)C(=O)CCC(=O)Nc2ccccn2)c1C | inconclusive: 0.164 µM [inhibitor, full curve, poor fit] | –
CC1=C(C(=O)Nc2ccccc2C)C(c2ccc(C)o2)n2c(s/c(=C/c3ccccc3)c2=O)=N1 (configuration not stated) | inconclusive: 4.61 µM [inhibitor, full curve] | –
O=C1C2CC(O)CN2C(=S)N1Cc1ccccc1 (configuration not stated) | inconclusive: 0.58 µM [inhibitor, single point] | –
N#C/C(=C/c1ccc(CNS(=O)(=O)c2ccccc2)o1)C(=O)NCc1ccccc1 | inconclusive: 13 µM [inhibitor, partial curve, poor fit] | –
S=C(NCc1ccco1)N/N=C/c1ccc(Cl)cc1 | inconclusive: 0.116 µM [inhibitor, partial curve, poor fit] | –
C/C(=N\NC(=O)c1ccc(Cl)cc1)c1ccc2[nH]ccc2c1 | inconclusive: 29.1 µM [activator, single point] | –
Cc1cc(Cl)ccc1OC(C)C(=O)N1CCCN(C(=O)C(C)Oc2ccc(Cl)cc2C)CC1 (configuration not stated) | inconclusive: 29.1 µM [inhibitor, single point] | –
CCOCCCNc1ccc(N2C(=O)C3CCCCC3C2=O)cc1[N+](=O)[O-] (configuration not stated) | inactive | –
N#CCN=C(c1ccccc1)c1ccccc1 | inconclusive: 14.6 µM [activator, partial curve, poor fit] | –

SMILES | Potency | activity change, negative = inhibition
Cn1nc(SCC(=O)O)sc1=S | inactive | –
C/C=C/C=C/C(=O)Nc1cccc(C2=NOC3(C2)C[C@H](C(N)=O)N(C(=O)CC(c2ccccc2)c2ccccc2)C3)c1 (some centres not stated) | inactive | –
C/C(=N\NC(=O)c1nnn(-c2nonc2N)c1CSc1ccc(Cl)cc1)c1ccco1 | inconclusive: 18.3 µM [activator, single point] | –
COc1cc(/C=N/Nc2nc(N3CCCC3)nc(N3CCCC3)n2)ccc1OCc1ccccc1F | inconclusive: 4.11 µM [inhibitor, full curve] | –
Nc1nc(SCC(=O)c2c(N)n(Cc3ccccc3)c(=O)[nH]c2=O)n[nH]1 | inactive | –
Cc1ccc(C)c(OCC(=O)Nc2cccc(C(=O)O)c2)c1C | inconclusive: 11.6 µM [activator, partial curve] | –
COc1ccc(Nc2nc(N)nc(C(F)(F)F)n2)c(OC)c1 | inconclusive: 14.6 µM [activator, single point] | –
N/C(Cc1ccccc1)=N\OC(=O)c1cccc2ccccc12 | inconclusive: 16.4 µM [inhibitor, single point] | –
O=C(NCC1CC1(Cl)Cl)Nc1ccc(Cl)c(Cl)c1 (configuration not stated) | inconclusive: 16.4 µM [activator, single point] | –
CC1CN(c2nc(-c3ccccc3)nnc2-c2ccccc2)CC(C)O1 (configuration not stated) | inconclusive: 23.1 µM [inhibitor, single point] | –
Cc1ccc(CNc2ncnc3c2cnn3-c2ccccc2)cc1 | inactive | –
COc1ccccc1NC(=O)c1c(C)nn(-c2ccccc2)c1Cl | inconclusive: 20.6 µM [inhibitor, single point] | –
NC(=S)N/N=C\c1c(OCc2ccccc2Cl)ccc2ccccc12 | inconclusive: 4.11 µM [inhibitor, full curve] | –
CC(C)(C)c1ccc(NC(=O)N2CCN(c3ccc([N+](=O)[O-])cn3)CC2)cc1 | inconclusive: 2.91 µM [inhibitor, full curve] | –
Cc1nc(-c2ccccn2)sc1C(=O)O | inconclusive: 29.1 µM [activator, single point] | –
O=[N+]([O-])c1ccc2nc(-c3ccccc3)[nH]c2c1 | inconclusive: 2.06 µM [activator, full curve] | –
CC(=O)C1=C(O)C(=O)N(Cc2ccco2)C1c1ccccc1F (configuration not stated) | inactive | –
Cc1cc(C)c2c3c(sc2n1)C(=O)N(Cc1ccccc1)CC(=O)N3 | inconclusive: 23.1 µM [inhibitor, partial curve] | –
O=C(NC(=S)Nc1ccc(Br)cc1)C1CCC1 | inconclusive: 23.1 µM [activator, single point] | –
NS(=O)(=O)c1cccc(NC(=O)c2cc(=O)c3ccccc3o2)c1 | inconclusive: 23.1 µM [activator, partial curve, poor fit] | –
O=[N+]([O-])c1cccc(S(=O)(=O)NCC2CCCO2)c1 (configuration not stated) | inconclusive: 20.6 µM [activator, single point] | –
CC(C)Cc1nnc(NC(=O)CCC(=O)Nc2ccc3cn[nH]c3c2)s1 | inconclusive: 29.1 µM [inhibitor, partial curve, poor fit] | –
O=C(COc1ccc2c(c1)CCC2)Nc1ccccn1 | inconclusive: 0.206 µM [activator, partial curve] | –
O=C1Cn2c(nc3ccccc32)N1c1cccc(C(F)(F)F)c1 | inactive | –

SMILES | Potency | activity change, negative = inhibition
C=CCc1ccc(OCCOc2cccc3ccc(C)nc23)c(OC)c1 | inactive | –
CN1C(=O)c2ccc(N(C)C)cc2C1=O | inconclusive: 9.2 µM [activator, partial curve] | –
COc1ccc(NC(=S)N(CCc2c(C)[nH]c3ccc(C)cc23)Cc2ccco2)cc1 | inconclusive: 20.6 µM [inhibitor, single point] | –
COc1ccccc1C(=O)NC(=O)CSc1nc(C)cs1 | inactive | –
CC(C)OCCCN1CN(S(=O)(=O)c2cccs2)c2nc3ccccc3nc21 | inconclusive: 18.3 µM [activator, partial curve, poor fit] | –
N#CCCN(Cc1cccs1)C(=O)c1ccc(Cl)cc1 | inactive | –
CNC(=S)Nc1ccc(C)cc1 | inactive | –
Cc1ccoc1C(=O)N1CCCCC1C(=O)O (configuration not stated) | inactive | –
Cc1cc(C)nc(SCCS(=O)Cc2ccc(Cl)cc2)n1 (configuration not stated) | inconclusive: 29.1 µM [activator, partial curve, poor fit] | –
COc1ccc(NC(=O)C2CCC2)cc1S(=O)(=O)Nc1cc(C)ccc1Br | active: 23.1 µM | –
Cc1ccc(CN(C)C(=O)c2ccccc2Oc2ccccc2)o1 | inactive | –
COc1ccc(C2=NN(CN3C(=O)C(=O)c4ccccc43)C(c3ccc(OC)cc3)C2)cc1 (configuration not stated) | inconclusive: 18.4 µM [activator, partial curve] | –
COc1ccc(/C=C/C(=O)c2ccc3c4c(cccc24)CC3)cc1 | inactive | –
C(=N\Nc1nc(-c2ccccc2)cs1)/c1cccs1 | inconclusive: 4.11 µM [activator, full curve] | –
CCOc1ccc(NC(=O)CNC(=O)COc2ccccc2)cc1 | inconclusive: 20.6 µM [activator, partial curve, poor fit] | –
COc1ccc(OC)c(NC(=O)NCc2cccnc2)c1 | inactive | –
Cc1[nH]c2ccc(C(=O)N3CCCC3)cc2c1C | inconclusive: 23.1 µM [activator, partial curve] | –
COc1ccccc1C(c1c(N)n(C)c(=O)n(C)c1=O)C(C)[N+](=O)[O-] (configuration not stated) | – | inconclusive: 53.7% [activator]
Cc1ccc2c(CC(=O)NC3CCS(=O)(=O)C3)coc2c1C (configuration not stated) | inconclusive: 14.6 µM [activator, partial curve, poor fit] | –
Cc1cc(Oc2ccccc2)nc(-c2ccccc2O)n1 | inconclusive: 14.6 µM [activator, partial curve] | –
COc1ccc(CCNC(=O)CCNC(=O)c2ccc(Cl)cc2)cc1OC | inconclusive: 14.6 µM [activator, partial curve, poor fit] | –
CC(=O)c1cccc(NC(=O)CCS(=O)(=O)c2ccc(Br)s2)c1 | inactive | –
O=C(CSc1nnc(-c2cccnc2)o1)Nc1cccc(F)c1 | inconclusive: 29.1 µM [activator, single point] | –
C=CCn1c(SCC(=O)N2CCCC2)nc2cc(C(=O)NCC3CCCO3)ccc2c1=O (configuration not stated) | inconclusive: 10.3 µM [inhibitor, partial curve] | –
